The record followed here is publication PMC3984170.

Amino acid sequences for entries named in this document (tags omitted). A change or cut given only in a name is not applied to a line headed by its entry. Chains listed by the source or under a name are the forms on record and can include a tag or linker.
UniProt P29590: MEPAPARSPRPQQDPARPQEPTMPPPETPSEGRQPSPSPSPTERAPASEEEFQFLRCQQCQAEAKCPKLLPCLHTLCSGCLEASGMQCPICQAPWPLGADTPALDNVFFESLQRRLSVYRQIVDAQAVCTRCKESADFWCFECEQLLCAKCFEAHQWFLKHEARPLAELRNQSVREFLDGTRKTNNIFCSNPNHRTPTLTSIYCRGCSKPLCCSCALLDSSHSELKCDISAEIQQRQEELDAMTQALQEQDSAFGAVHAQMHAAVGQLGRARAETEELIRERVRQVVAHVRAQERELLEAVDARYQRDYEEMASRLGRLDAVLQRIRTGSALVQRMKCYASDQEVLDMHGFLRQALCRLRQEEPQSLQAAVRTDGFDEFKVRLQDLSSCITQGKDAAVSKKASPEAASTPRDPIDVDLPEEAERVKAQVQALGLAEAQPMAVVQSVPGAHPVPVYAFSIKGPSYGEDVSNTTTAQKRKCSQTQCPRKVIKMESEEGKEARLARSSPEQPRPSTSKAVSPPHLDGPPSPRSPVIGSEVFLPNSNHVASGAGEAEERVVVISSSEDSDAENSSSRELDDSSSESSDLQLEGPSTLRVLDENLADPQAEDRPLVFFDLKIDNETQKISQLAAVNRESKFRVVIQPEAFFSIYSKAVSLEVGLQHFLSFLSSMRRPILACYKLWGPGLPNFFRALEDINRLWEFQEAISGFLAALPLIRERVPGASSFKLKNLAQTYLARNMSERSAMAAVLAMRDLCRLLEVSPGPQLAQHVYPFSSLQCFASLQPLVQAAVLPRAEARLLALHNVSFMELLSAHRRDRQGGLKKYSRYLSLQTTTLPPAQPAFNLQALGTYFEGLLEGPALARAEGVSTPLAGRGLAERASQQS
PML4 (induced in the stable cell line U2OS/PML4) (P29590-5, form named): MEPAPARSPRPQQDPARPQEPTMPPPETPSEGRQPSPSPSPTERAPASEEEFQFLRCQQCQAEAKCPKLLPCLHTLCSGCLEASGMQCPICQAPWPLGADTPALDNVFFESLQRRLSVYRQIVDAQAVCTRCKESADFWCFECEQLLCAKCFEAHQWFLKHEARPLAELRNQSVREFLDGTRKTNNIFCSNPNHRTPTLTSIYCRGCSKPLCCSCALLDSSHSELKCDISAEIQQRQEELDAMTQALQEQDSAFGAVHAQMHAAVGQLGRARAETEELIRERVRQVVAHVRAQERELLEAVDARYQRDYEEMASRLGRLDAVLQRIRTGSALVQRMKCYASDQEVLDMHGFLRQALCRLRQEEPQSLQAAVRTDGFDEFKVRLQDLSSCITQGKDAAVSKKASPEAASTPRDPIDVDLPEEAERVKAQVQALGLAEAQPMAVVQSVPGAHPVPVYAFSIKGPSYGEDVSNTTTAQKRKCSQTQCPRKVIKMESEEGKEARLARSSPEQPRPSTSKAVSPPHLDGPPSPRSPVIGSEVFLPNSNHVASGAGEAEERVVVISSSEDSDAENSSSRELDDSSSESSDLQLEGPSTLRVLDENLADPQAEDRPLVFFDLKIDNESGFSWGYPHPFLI
UniProt P08047: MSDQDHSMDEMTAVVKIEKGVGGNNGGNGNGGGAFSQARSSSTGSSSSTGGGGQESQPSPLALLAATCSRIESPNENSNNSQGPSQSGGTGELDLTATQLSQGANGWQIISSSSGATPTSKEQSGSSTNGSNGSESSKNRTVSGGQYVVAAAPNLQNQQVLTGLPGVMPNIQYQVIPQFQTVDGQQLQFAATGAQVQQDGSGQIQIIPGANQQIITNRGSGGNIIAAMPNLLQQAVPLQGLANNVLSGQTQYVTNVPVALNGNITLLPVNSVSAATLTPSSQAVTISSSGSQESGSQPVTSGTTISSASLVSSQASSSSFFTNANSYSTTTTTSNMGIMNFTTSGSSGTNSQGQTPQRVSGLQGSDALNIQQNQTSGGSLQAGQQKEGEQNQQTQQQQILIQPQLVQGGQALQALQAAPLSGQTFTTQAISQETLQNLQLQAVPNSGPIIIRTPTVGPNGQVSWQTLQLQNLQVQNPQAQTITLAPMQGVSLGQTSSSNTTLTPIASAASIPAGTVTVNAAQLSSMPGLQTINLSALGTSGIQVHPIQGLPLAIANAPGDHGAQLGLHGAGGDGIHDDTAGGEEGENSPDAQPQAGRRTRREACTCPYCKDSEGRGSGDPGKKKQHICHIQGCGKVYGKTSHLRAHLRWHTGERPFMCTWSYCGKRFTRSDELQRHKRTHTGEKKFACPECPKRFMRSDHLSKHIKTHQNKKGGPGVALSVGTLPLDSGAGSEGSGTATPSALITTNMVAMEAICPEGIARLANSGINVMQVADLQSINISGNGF

The target of experiment [1] is PML4 (transfected into PML-/- MEFs) (UniProt P29590). The experiment can be described thus: co-IP; PML-/- MEFs co-transfected with PMLIV and FLAG-Sp1-HA or FLAG-Sp1K16R-HA, lysed after 24 h; immunoprecipitation with anti-PML polyclonal antibody, IgG control; Western blot with anti-HA monoclonal antibody.
Experiment [2] addresses Sp1 (endogenous, human cells) (human (endogenous in U2OS and SiHa)) (UniProt P08047). Nature of the experiment: co-IP; U2OS/PML4 cells after induction of PML4 with ZnSO4; lysis and washes in RIPA buffer; immunoprecipitation with anti-Sp1 antibody (normal rabbit IgG as negative control), Western blot with PML4-specific antibody.
Experiment [3] shares this target. Nature of the experiment: co-IP; data not shown; SiHa cells with or without IFN-α treatment, similar co-immunoprecipitation assay.

No constants are given. Whether binding was seen depends on the method and setting. Binding seen in cells or lysates may run through a third protein. Some binding calls cover weakened binding; strength is not graded here.

As for FLAG-Sp1-HA (from UniProt P08047 1-785), the binding result in experiment [1] was “binds”.
Turning to “PML4 (induced in the stable cell line U2OS/PML4) (from UniProt P29590-5 1-633)”, the binding entry in experiment [2] is reported as “binds”.
“PML (endogenous, SiHa cells) (from UniProt P29590 1-882)”: the binding result in experiment [3] is recorded as “binds”.
